According to article PMC5864048:

What was measured:
[1] = test system: GST-OsMYB5P (Oryza sativa L. 'Dongjin'); assay: EMSA; details: poly(dI-dC), 5 mM MgCl2, 5 mM MgCl2, 2.5% glycerol, 0.05% NP-40, 50 ng/uL poly(dI-dC), recombinant protein, protein details: GST (pGEX-2T), label: 3' biotin
[2] = test system: GST-OsMYB5P (Oryza sativa L. 'Dongjin'); assay: competition with a labelled probe; details: cold probe decreases the labeled MBS1 complex; 5 mM MgCl2, 2.5% glycerol, 0.05% NP-40, 50 ng/uL poly(dI-dC); recombinant protein; protein details: GST (pGEX-2T)

**Q.** Does “GGACAGGAACATTCCAGTTGATGGTTTCCTTCAATTAGG (double strand) [OsPT5-MBS2]” bind [1]?
**A.** Result: binds more weakly

**Q.** Does “TATAATATAATGAACTTACAGTTGAGACATACATATGAA (double strand) [OsPT5-MBS1 cold competitor]” bind [2]?
**A.** Result: binds

**Q.** Does “TATAATATAATGAACTTACAGTTGAGACATACATATGAA (double strand) [OsPT5-MBS1]” bind ([1]; band increases with protein amount)?
**A.** Result: binds

Construct, isoform or probe ends are uncertain for at least one entry. For part of these data: The comparison behind a weaker result is the experiment's own reference, which may not be listed here. For part of these data: At least one verdict rests on a figure or table, not on a statement of the authors.
